Hit rate of the full screen: of about 220,000 compounds, about 770 (0.35%) were called active. The inconclusive results got no clear call from the source; some entries with a clear call stand among them for comparison. Cut-off read from the data, not from the text of the source: active = binding response below about 49% or above about 150%; inconclusive = no clear call, values can overlap the other calls; inactive = in between.
molecular target: Guanine nucleotide-binding protein G(o) subunit alpha (Homo sapiens) (UniProt P09471); experiment: RGS7-Galphao binding modulators, primary screen, biochemical, multiplexed bead flow cytometry (AID 1439); settings: at 10 µM, actives lie on both sides;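 note: fluorescent Galphao held in activated GDP-AlF4 state binding bead-coupled RGS7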

Amino acid sequences for entries named in this document (tags omitted).
UniProt P09471, whole entry, looked up: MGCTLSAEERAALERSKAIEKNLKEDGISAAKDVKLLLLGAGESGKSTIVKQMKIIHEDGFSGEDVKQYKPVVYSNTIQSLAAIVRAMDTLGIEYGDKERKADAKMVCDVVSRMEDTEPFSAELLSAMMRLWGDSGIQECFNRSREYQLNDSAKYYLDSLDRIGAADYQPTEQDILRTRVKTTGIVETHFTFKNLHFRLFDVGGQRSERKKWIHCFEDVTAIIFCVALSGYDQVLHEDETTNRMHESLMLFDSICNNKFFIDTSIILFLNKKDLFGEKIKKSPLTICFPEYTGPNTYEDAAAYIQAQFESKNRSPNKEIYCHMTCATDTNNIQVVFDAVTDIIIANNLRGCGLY

| SMILES | binding response (% of control) |
| --- | --- |
| COc1ccccc1N1C(=O)C2C(C(=O)c3ccccc3)=NN(c3ccccc3OC)C2C1=O (configuration not stated) | inconclusive: 123% |
| NNC(=O)c1cc2c(s1)-c1cc(Cl)ccc1SC2 | inconclusive: 50% |
| CC(C)N(C(=O)Cn1cc(S(=O)(=O)CC(=O)NC2CCCCC2)c2ccccc21)C(C)C | inconclusive: 105% |
| COc1cc(C(F)(F)F)nc(-c2ccccn2)n1 | inconclusive: 102% |
| Cc1cccc(N/N=C/c2ccc(O)c(O)c2O)c1 | inconclusive: 155% |
| CSS(=O)(=O)c1cccc2cccnc12 | inconclusive: 113% |
| Cn1c(=O)c2c(nc(Br)n2Cc2nnc(N)s2)n(C)c1=O | inconclusive: 91% |
| CC1CN(S(=O)(=O)c2ccc(C(=O)Nc3nccs3)cc2)CC(C)O1 (configuration not stated) | inconclusive: 184% |
| O=C(/C=C/c1ccc(N2CCC(c3ccccc3)=N2)cc1)c1ccccc1 | active: 153% [activator] |
| COc1ccc(CCn2c(O)cc3nn(-c4nc5ccccc5s4)c(=O)c-3c2C)cc1 | inconclusive: 125% |
| COCCOCCn1c(/C=C/c2ccccc2)nc2ccccc21 | inconclusive: 84.1% |
| NS(=O)(=O)c1ccc(NC(=O)c2c(F)cccc2Cl)cc1 | inconclusive: 119% |
| COc1ccc2oc(C(=O)OCC(=O)/C(C#N)=C(\C)N)c(C)c2c1 | inactive: 105% |
| CCC(CC)=NNc1ccc([N+](=O)[O-])cc1[N+](=O)[O-] | inconclusive: 80.9% |
| CCOC(=O)N1CCN(C(=O)CSCc2ccc(Br)cc2)CC1 | inactive: 98.2% |
| CCOC(=O)c1ccc(N2CCOCC2)c(NC(=O)c2c(-c3ccccc3)noc2C)c1 | inconclusive: 98.3% |
| O=C(O)CC1(CC(=O)Nc2cc(F)ccc2Cl)CCCCC1 | inconclusive: 83.5% |
| CN(C)S(=O)(=O)c1cccc(-c2nn(-c3ccccc3)cc2/C=C2\SC(=S)N(CC(=O)O)C2=O)c1 | inconclusive: 169% |
| O=C(O)CCCC(=O)N1CCN(c2ncccn2)CC1 | inconclusive: 98.3% |
| c1ccc(CCCCNCC2COc3ccccc3O2)cc1 (configuration not stated) | inconclusive: 88.3% |
| Cc1csc2c(N(C)CCO)ncnc12 | inconclusive: -81.1% |
| [O-]/C(=C(\C(=S)Nc1ccc(SC(F)F)cc1)[n+]1ccccc1)c1cc(Cl)ccc1Cl | inconclusive: 92% |
| C[C@H](c1ccccc1)n1nnc(COCc2ccccc2)c1C#CCOCc1ccccc1 | inconclusive: 74% |

Grouped by structure: those above containing sulfur

| SMILES | binding response (% of control) |
| --- | --- |
| NNC(=O)c1cc2c(s1)-c1cc(Cl)ccc1SC2 | inconclusive: 50% |
| CC(C)N(C(=O)Cn1cc(S(=O)(=O)CC(=O)NC2CCCCC2)c2ccccc21)C(C)C | inconclusive: 105% |
| CSS(=O)(=O)c1cccc2cccnc12 | inconclusive: 113% |
| Cn1c(=O)c2c(nc(Br)n2Cc2nnc(N)s2)n(C)c1=O | inconclusive: 91% |
| CC1CN(S(=O)(=O)c2ccc(C(=O)Nc3nccs3)cc2)CC(C)O1 (configuration not stated) | inconclusive: 184% |
| COc1ccc(CCn2c(O)cc3nn(-c4nc5ccccc5s4)c(=O)c-3c2C)cc1 | inconclusive: 125% |
| NS(=O)(=O)c1ccc(NC(=O)c2c(F)cccc2Cl)cc1 | inconclusive: 119% |
| CCOC(=O)N1CCN(C(=O)CSCc2ccc(Br)cc2)CC1 | inactive: 98.2% |
| CN(C)S(=O)(=O)c1cccc(-c2nn(-c3ccccc3)cc2/C=C2\SC(=S)N(CC(=O)O)C2=O)c1 | inconclusive: 169% |
| Cc1csc2c(N(C)CCO)ncnc12 | inconclusive: -81.1% |
| [O-]/C(=C(\C(=S)Nc1ccc(SC(F)F)cc1)[n+]1ccccc1)c1cc(Cl)ccc1Cl | inconclusive: 92% |

Later entries

| SMILES | binding response (% of control) |
| --- | --- |
| CSc1cccc(NC(=O)OC2CCCCCCCCCCC2)c1 | inconclusive: 48.6% |
| O=C(Cn1cc2c(n1)CCCCC2)Nc1c(F)cc(F)cc1Br | inconclusive: 269% |
| O=C(N/N=C\C=C\c1ccco1)c1cncc(Br)c1 | inconclusive: 98.5% |
| CN1CCN(NC(=O)c2cc(S(=O)(=O)Nc3ccc(Cl)cc3)ccc2Cl)CC1 | inconclusive: 90% |
| Cc1ccccc1C(=O)NC(=S)Nc1ccc2[nH]c(=O)[nH]c2c1 | inconclusive: 107% |
| Oc1ccc(/C=N/N2CCN(C3c4ccccc4-c4ccccc43)CC2)cc1O | inconclusive: 69.6% |
| COc1cc(C(=O)N2CCC(NC(=O)C(Cc3ccccc3C)NC(C)=O)CC2)cc(OC)c1OC (configuration not stated) | inactive: 108% |
| CCN(CC)CCCOc1nc(C)nc2c1oc1ccccc12 | inactive: 110% |
| CN(C)c1nc(-c2ccccc2)ns1 | inconclusive: 100% |
| CCOc1ccccc1/C=N/NC(=O)c1cccc(S(=O)(=O)N(CC)CC)c1 | inactive: 91.6% |
| Cc1ccc(OCC(=O)NCCc2nc3ccccc3[nH]2)c(C)c1 | inconclusive: 92.4% |
| COC(=O)c1cc(S(=O)(=O)Nc2cccc(S(N)(=O)=O)c2)oc1C | inconclusive: 99% |
| COc1ccc(CCNC(=O)c2ccc(N(C)S(=O)(=O)c3ccccc3)cc2)cc1 | inconclusive: 97.7% |
| CCN(CC)CC#Cc1ccc(C)cc1 | inconclusive: 90.3% |
| Cn1c(SCC(=O)N/N=C/c2ccncc2)nc2ccccc21 | inconclusive: -160% |
| Cc1ccccc1CC1(CO)CCCN(C(=O)CCCN2CCCCC2=O)C1 (configuration not stated) | inactive: 91.1% |
| O=C(NC(=S)Nc1ccc2c(c1)OCCO2)c1cccc2ccccc12 | inactive: 101% |
| O=C(Cc1ccc([N+](=O)[O-])cc1)Nc1cc(C(F)(F)F)cc(C(F)(F)F)c1 | inconclusive: 72.3% |
| Fc1ccccc1Oc1nc(-c2ccncc2)nc2ccccc12 | inconclusive: 135% |
| CC(=O)Cc1cc2cc([N+](=O)[O-])ccc2oc1=O | inconclusive: 128% |
| COc1cc(OC)c2c(c1)C(=O)OC2OC (configuration not stated) | inconclusive: 95.4% |
| CCSc1nc(-c2ccccc2)nc2c1CCCC2 | inconclusive: 89.7% |
| CNC(=S)NNC(=O)c1ccc(C(C)(C)C)cc1 | inconclusive: 105% |

Random excerpt: 2 entries already listed

| SMILES | binding response (% of control) |
| --- | --- |
| O=C(O)CCCC(=O)N1CCN(c2ncccn2)CC1 | inconclusive: 98.3% |
| COc1ccc(CCn2c(O)cc3nn(-c4nc5ccccc5s4)c(=O)c-3c2C)cc1 | inconclusive: 125% |

Next compounds follow:

| SMILES | binding response (% of control) |
| --- | --- |
| COC(=O)c1ccccc1NC(=O)c1ccc2c(c1)OCCO2 | inactive: 137% |
| O=C1CN2CCC1C/C2=C\c1ccnc2c(Cl)cccc12 (configuration not stated) | inconclusive: 118% |
| CCCCCCN(C(=O)CCCCCN1C(=O)NC(c2ccccc2)C(C(=O)OCc2ccccc2)=C1C)C(C(=O)NCCCC)c1ccc(OCC(=O)OC)c(C(=O)OC)c1 (configuration not stated) | inconclusive: 133% |
| COc1cccc(C(=O)Nc2cc(-c3cn4cccnc4n3)ccc2C)c1 | inactive: 102% |
| Cc1cc(N)c2cc(NC(=O)/C=C/c3ccccc3Cl)ccc2n1 | inconclusive: 124% |
| Cc1ccc(NCC(=O)N/N=C/c2ccncc2)cc1 | inconclusive: 100% |
| CC(C)CCOC(=O)C(C)Sc1n[nH]c(=O)[nH]c1=O (configuration not stated) | inconclusive: 64% |
| Cc1ccc(OCC(=O)NCc2cccs2)c([N+](=O)[O-])n1 | inactive: 102% |
| CC12CCC(C(=O)N3CCC(Cc4ccccc4)CC3)(C(=O)C1=O)C2(C)C (configuration not stated) | inactive: 93.9% |
| Cc1ccc(S(=O)(=O)N(CC(O)CN2C(=O)NC(C)(C)C2=O)c2cccc(C)c2)cc1 (configuration not stated) | inconclusive: 77.6% |
| CC(=O)[C@@H]1[C@@H]2C(=O)N(c3ccccc3F)C(=O)[C@@H]2[C@H]2c3ccccc3C=NN12 | inconclusive: 130% |
| CCOC(=O)c1nnn2c1nc(N1CCN(c3ccccc3)CC1)c1ccccc12 | inconclusive: 11.9% |
| Cc1cc(C)nc(Nc2n[nH]c(-c3ccccc3C)n2)n1 | inconclusive: 76% |
| Cc1ccc(-c2nn(CCC(=O)O)cc2CCC(=O)O)cc1 | inactive: 104% |
| O=C(Cc1ccccc1)N[C@@H](Cc1ccc(O)cc1)C(=O)O | inconclusive: 103% |
| O=C(/C=C/c1ccc(S(=O)(=O)N2CCOCC2)cc1)N1CCN(c2ccc(F)cc2)CC1 | inconclusive: 20.4% |
| CC(=O)NC(CC(=O)Nc1nccs1)c1ccccc1 (configuration not stated) | inconclusive: 117% |
| CC1(C)OC1COc1c2ccoc2cc2oc(=O)ccc12 (configuration not stated) | inactive: 102% |
| COC(=O)c1ccc(NC(=O)c2ccccc2N(C)S(=O)(=O)c2ccccc2)cc1 | inactive: 94.2% |
| COC(=O)C(C)NC(=O)CNS(=O)(=O)c1ccc(F)cc1 (configuration not stated) | inconclusive: 106% |
| CCOC(=O)N1CCN(C(=O)C2CCN(S(=O)(=O)c3ccc(F)cc3)CC2)CC1 | inconclusive: 96.5% |
| O=C(CN(Cc1ccco1)C(=O)CNS(=O)(=O)c1ccc(Cl)cc1)NCC1CCCO1 (configuration not stated) | inconclusive: 101% |
| O=C(COC(=O)C1(c2ccc(F)cc2)CCCC1)NCc1ccco1 | inconclusive: 78.4% |

| SMILES | binding response (% of control) |
| --- | --- |
| Cn1cc(C(=O)N/N=C/c2c(O)ccc3ccccc23)ccc1=O | inconclusive: 96.3% |
| CCCCNc1nc2cccnc2s1 | inconclusive: 92.4% |
| O=C(CSc1nc2ccccc2o1)N/N=C/c1ccccc1C(=O)O | inconclusive: 102% |
| Cc1ccc(NC(=O)N2CCCC2C(=O)NCC2CCCO2)cc1 (configuration not stated) | inactive: 99.2% |
| COc1ccc(Nc2cc(C)c3ccc(O)cc3n2)cc1 | inconclusive: 40.3% |
| Cc1[nH]n(C)c(=O)c1[N+](=O)[O-] | inconclusive: 82.8% |
| COc1cc(C2N(c3cccc(Cl)c3)C(=O)C3CCCN32)cc(OC)c1OC (configuration not stated) | inactive: 99.2% |
| CCCCNC(=O)c1cc2cc(OC)ccc2[nH]1 | inconclusive: 78.6% |
| Cc1cnc(NC(=O)CSc2nnc(-c3cccs3)n2C)s1 | inactive: 93.8% |
| CN(C)CC1CCCCC1OC(=O)/C=C/c1ccccc1 (configuration not stated) | inconclusive: 110% |
| Cc1cc(-c2n[nH]c(=S)n2Cc2ccco2)n(C)n1 | inactive: 92.6% |
| COc1ccc2cc(C)c3nnc(SCC(=O)Nc4cc(OC)c(OC)cc4C(=O)O)n3c2c1 | inconclusive: 97.2% |
| CCOC(=O)C1C(c2cccs2)NC(=O)N(C)C1(O)C(F)(F)F (configuration not stated) | inactive: 107% |
| O=C(O)c1ccc(OCCOc2ccccc2)cc1 | inconclusive: 73.7% |
| Cc1ccc(C)n1-c1ccccc1N1CCCCC1 | inactive: 90.7% |
| COCCNC(=O)C1CC2Cn3c(nc4ccccc43)C2N1C (configuration not stated) | inconclusive: 110% |
| COC(=O)C(C)Nc1cccc(Br)c1 (configuration not stated) | inconclusive: 81.1% |
| COC(=O)c1ccc(CN2CCCCC2)cc1 | inconclusive: 91.7% |
| Cc1ccc(NC(=O)COC(=O)CCOc2ccccc2C)cc1 | inconclusive: 107% |
| Cc1nc(-c2ccc(Cl)cc2)sc1C1(C)CC(c2ccc(OC(F)(F)F)cc2)=NO1 (configuration not stated) | inconclusive: 93.8% |
| CC(C)(CC(=O)O)CC(=O)Nc1ccc(Cl)c(Cl)c1 | inconclusive: 106% |
| FC(F)(F)c1cc(CCN2C(=S)NC[C@@H]2CC2CCCCC2)cc(C(F)(F)F)c1 | inconclusive: 98.3% |
| O=c1onc(-c2ccc(Cl)cc2Cl)n1-c1cccnc1 | inconclusive: 89.6% |

— PubChem BioAssay AID1439 (NMMLSC, 2008)
